{
  "sequences": {"note": "Chains of the proteins cited; added tags and fusions are not shown. Residues count along the entry.", "UniProt Q9NZQ7, 19-290": "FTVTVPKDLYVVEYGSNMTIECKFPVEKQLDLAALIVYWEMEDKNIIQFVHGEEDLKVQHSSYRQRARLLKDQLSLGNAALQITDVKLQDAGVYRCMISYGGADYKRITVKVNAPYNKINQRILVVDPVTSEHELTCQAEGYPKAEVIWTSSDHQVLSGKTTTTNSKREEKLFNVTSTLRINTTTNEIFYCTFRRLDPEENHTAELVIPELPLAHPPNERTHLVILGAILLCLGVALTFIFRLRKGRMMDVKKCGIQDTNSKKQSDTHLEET"},
  "source": "paper PMC9138745",
  "key": {"[1]": {"target": "PD-L1 (CD274) displayed on extracellular vesicles (UniProt Q9NZQ7)", "experiment": "bead-captured EV chemiluminescence assay (streptavidin-ALP/CDP-Star)", "conditions": "Aptamer in 3% BSA-HEPES, room temperature, after blocking with BSA, salmon sperm DNA (0.5 mg/mL) and 500 mM arginine in HEPES, protein on the cell surface, label: 5' biotin, single-stranded DNA"}, "[2]": {"target": "PD-L1 (CD274) displayed on extracellular vesicles (UniProt Q9NZQ7)", "experiment": "confocal microscopy of bead-captured EVs", "conditions": "30 min, no fluorescence on beads with PBS instead of EVs, Aptamer in 3% BSA-HEPES, room temperature, after blocking with BSA, salmon sperm DNA (0.5 mg/mL) and 500 mM arginine in HEPES, protein on the cell surface, label: 5' Cy3, single-stranded DNA"}},
  "note": "Construct, isoform or probe ends are uncertain for at least one entry. At least one result comes from cells or an extract, where the contact may be indirect. For part of these data: Weaker means in comparison with the reference protein, sequence or condition of that experiment.",
  "data": [
    {"sequence": "AAGACGGACCAGCCTTGCCGCAAGACGGACCAGGGATT [Biotin-PD-L1 aptamer]", "values": [
      {"measurement": "binding result", "setting": "[1]; 0.075 uM aptamer, 30 min (optimized), EVs vs PBS blank", "result": "binds"}
    ]},
    {"sequence": "ACGACATACCGGCCTTTCCGCAAGACGGACCAGGGGT [Biotin-PD-L1-scrambled]", "values": [
      {"measurement": "binding result", "setting": "[1]; lower CL intensity than PD-L1 aptamer, level versus PBS not stated, 30 min", "result": "binds more weakly"}
    ]},
    {"sequence": "AAGACGGACCAGCCTTGCCGCAAGACGGACCAGGGATT [Cy3-PD-L1 aptamer]", "values": [
      {"measurement": "binding result", "setting": "[2]", "result": "binds"}
    ]}
  ]
}
